Source: the supplement of paper PMC6078165

System: MDAMB436
Assay: relative JC-1 red fluorescence (viability) vs pre-drug, coculture with fibroblast (fraction); higher = more viable cancer cells
Method: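 JC-1 labelled TNBC cells cocultured 1:1 (1,500 cells each) with CellTrace Violet stained primary or stromal fibroblasts in 384-well plates in FluoroBrite medium, treated with one of 42 anticancer drugs at 0.1, 1, 10 or 100 uM. JC-1 red fluorescence (mitochondrial integrity in cancer cells only) was read by plate reader every 8 h for 72 h. Values are normalised to each well's pre-drug value. The stock of one drug was tenfold lower, so its dose labels may be too high.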

CC(=O)c1c(C)c2cnc(Nc3ccc(N4CCNCC4)cn3)nc2n(C2CCCC2)c1=O [Palbociclib]
relative JC-1 red fluorescence
Settings	8 h	16 h	24 h	32 h	40 h	48 h	56 h	64 h	72 h
0.1 µM, coculture fibroblast: C12385	0.804	0.68	0.65	0.572	0.529	0.504	0.483	0.467	0.462
0.1 µM, coculture fibroblast: H6013	0.864	0.747	0.744	0.741	0.732	0.763	0.725	0.702	0.662
0.1 µM, coculture fibroblast: H6019	0.748	0.6671	0.634	0.557	0.521	0.501	0.466	0.438	0.413
0.1 µM, coculture fibroblast: H6076	0.788	0.706	0.684	0.642	0.621	0.594	0.606	0.603	0.591
0.1 µM, coculture fibroblast: H6231	0.81	0.738	0.69	0.613	0.583	0.547	0.5215	0.4945	0.466
0.1 µM, coculture fibroblast: HADF	0.813	0.685	0.652	0.599	0.5674	0.569	0.506	0.492	0.452
0.1 µM, coculture fibroblast: HCFa	0.773	0.6468	0.6068	0.5689	0.522	0.537	0.468	0.456	0.405
0.1 µM, coculture fibroblast: HCPF	0.774	0.68	0.658	0.599	0.575	0.5363	0.511	0.487	0.465
0.1 µM, coculture fibroblast: HHSteC	0.8239	0.74	0.7198	0.6875	0.674	0.6859	0.6182	0.5991	0.541
0.1 µM, coculture fibroblast: HMF	0.765	0.667	0.626	0.572	0.5501	0.5173	0.519	0.4926	0.4869
0.1 µM, coculture fibroblast: HPFa	0.8797	0.79	0.7576	0.7154	0.697	0.71	0.63	0.606	0.5288
0.1 µM, coculture fibroblast: HUF	0.866	0.779	0.746	0.679	0.638	0.599	0.583	0.561	0.549
0.1 µM, coculture fibroblast: Hs5	0.774	0.6683	0.664	0.614	0.601	0.565	0.579	0.55	0.539
0.1 µM, coculture fibroblast: Hs27A	0.789	0.716	0.676	0.663	0.625	0.691	0.586	0.564	0.495
0.1 µM, coculture fibroblast: Hs343T	0.729	0.6528	0.614	0.569	0.549	0.512	0.5	0.484	0.48
0.1 µM, coculture fibroblast: WS1	0.787	0.668	0.63	0.537	0.488	0.46	0.425	0.395	0.381
1 µM, coculture fibroblast: C12385	0.8402	0.709	0.719	0.646	0.595	0.566	0.533	0.512	0.498
1 µM, coculture fibroblast: H6013	0.899	0.85	0.878	0.881	0.794	0.761	0.754	0.807	0.813
1 µM, coculture fibroblast: H6019	0.783	0.716	0.71	0.643	0.604	0.58	0.536	0.495	0.467
1 µM, coculture fibroblast: H6076	0.823	0.70206	0.715	0.6766	0.654	0.633	0.643	0.643	0.632
1 µM, coculture fibroblast: H6231	0.819	0.726	0.717	0.6452	0.6089	0.5677	0.5541	0.54	0.506
1 µM, coculture fibroblast: HADF	0.877	0.794	0.799	0.782	0.764	0.79	0.726	0.715	0.67
1 µM, coculture fibroblast: HCFa	0.845	0.762	0.738	0.7043	0.67	0.67648	0.603	0.575	0.511
1 µM, coculture fibroblast: HCPF	0.822	0.731	0.7517	0.696	0.661	0.621	0.593	0.575	0.545
1 µM, coculture fibroblast: HHSteC	0.894	0.845	0.817	0.784	0.779	0.784	0.717	0.686	0.621
1 µM, coculture fibroblast: HMF	0.852	0.735	0.747	0.6949	0.664	0.6291	0.619	0.594	0.574
1 µM, coculture fibroblast: HPFa	0.939	0.904	0.901	0.868	0.86	0.862	0.78	0.746	0.666
1 µM, coculture fibroblast: HUF	0.901	0.778	0.759	0.684	0.625	0.601	0.57	0.539	0.519
1 µM, coculture fibroblast: Hs5	0.826	0.744	0.7441	0.677	0.657	0.608	0.601	0.57	0.541
1 µM, coculture fibroblast: Hs27A	0.8669	0.803	0.778	0.747	0.716	0.762	0.656	0.633	0.56
1 µM, coculture fibroblast: Hs343T	0.84	0.722	0.708	0.665	0.627	0.587	0.568	0.546	0.528
1 µM, coculture fibroblast: WS1	0.832	0.7277	0.72209	0.65481	0.6148	0.599	0.5751	0.544	0.536
10 µM, coculture fibroblast: C12385	0.883	0.836	0.843	0.794	0.766	0.741	0.719	0.688	0.673
10 µM, coculture fibroblast: H6013	0.8937	0.863	0.886	0.8392	0.781	0.879	0.809	0.827	0.837
10 µM, coculture fibroblast: H6019	0.8397	0.829	0.841	0.811	0.807	0.804	0.763	0.74	0.704
10 µM, coculture fibroblast: H6076	0.838	0.688	0.679	0.639	0.596	0.571	0.563	0.545	0.537
10 µM, coculture fibroblast: H6231	0.819	0.7697	0.67667	0.627	0.593	0.554	0.525	0.497	0.478
10 µM, coculture fibroblast: HADF	0.886	0.862	0.856	0.834	0.831	0.835	0.792	0.767	0.711
10 µM, coculture fibroblast: HCFa	0.919	0.9	0.817	0.855	0.829	0.852	0.887	0.868	0.817
10 µM, coculture fibroblast: HCPF	0.8268	0.775	0.705	0.659	0.617	0.578	0.539	0.508	0.486
10 µM, coculture fibroblast: HHSteC	0.908	0.8662	0.852	0.837	0.837	0.837	0.791	0.773	0.734
10 µM, coculture fibroblast: HMF	0.85	0.733	0.6332	0.5963	0.56	0.519	0.494	0.473	0.455
10 µM, coculture fibroblast: HPFa	0.9374	0.9102	0.907	0.901	0.899	0.895	0.864	0.86	0.81
10 µM, coculture fibroblast: HUF	0.9153	0.8641	0.869	0.822	0.782	0.748	0.717	0.706	0.687
10 µM, coculture fibroblast: Hs5	0.835	0.705	0.662	0.591	0.555	0.498	0.482	0.438	0.408
10 µM, coculture fibroblast: Hs27A	0.888	0.88	0.88	0.838	0.793	0.741	0.754	0.755	0.701
10 µM, coculture fibroblast: Hs343T	0.792	0.661	0.629	0.583	0.5477	0.5038	0.481	0.454	0.432
10 µM, coculture fibroblast: WS1	0.8558	0.8544	0.9085	0.9087	0.924	0.929	0.9086	0.872	0.833
100 µM, coculture fibroblast: C12385	0.658	0.542	0.476	0.387	0.336	0.306	0.284	0.261	0.237
100 µM, coculture fibroblast: H6013	0.588	0.3906	0.355	0.323	0.2997	0.2928	0.2547	0.2313	0.1909
100 µM, coculture fibroblast: H6019	0.777	0.535	0.484	0.407	0.376	0.357	0.34	0.323	0.302
100 µM, coculture fibroblast: H6076	0.9884	0.838	0.712	0.602	0.505	0.435	0.389	0.363	0.339
100 µM, coculture fibroblast: H6231	0.871	0.761	0.656	0.5653	0.485	0.397	0.362	0.32	0.301
100 µM, coculture fibroblast: HADF	0.654	0.475	0.44	0.399	0.368	0.369	0.316	0.295	0.248
100 µM, coculture fibroblast: HCFa	0.788	0.487	0.417	0.357	0.328	0.329	0.281	0.263	0.214
100 µM, coculture fibroblast: HCPF	0.876	0.911	0.821	0.702	0.628	0.541	0.472	0.418	0.361
100 µM, coculture fibroblast: HHSteC	0.816	0.614	0.546	0.479	0.453	0.445	0.394	0.362	0.312
100 µM, coculture fibroblast: HMF	0.892	0.877	0.758	0.642	0.533	0.449	0.371	0.313	0.268
100 µM, coculture fibroblast: HPFa	0.891	0.76	0.611	0.535	0.493	0.486	0.423	0.405	0.355
100 µM, coculture fibroblast: HUF	0.8442	0.613	0.521	0.431	0.377	0.348	0.321	0.292	0.28
100 µM, coculture fibroblast: Hs5	0.987	0.908	0.791	0.663	0.553	0.456	0.419	0.358	0.311
100 µM, coculture fibroblast: Hs27A	0.575	0.409	0.361	0.328	0.303	0.321	0.259	0.242	0.186
100 µM, coculture fibroblast: Hs343T	0.992	0.9419	0.832	0.723	0.598	0.509	0.447	0.395	0.361
100 µM, coculture fibroblast: WS1	0.714	0.549	0.506	0.428	0.383	0.357	0.34	0.315	0.294

The reference is the same well before dosing, and untreated signal decays as well.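 Fibroblast labels name human fibroblasts: mostly primary ones from tissues such as uterus (C12385, HUF), lung (H6013), bone (Hs27A), adrenal (HADF) and skin (WS1), plus mammary HMF and breast cancer-associated Hs343T. The cancer cells are basal-like or mesenchymal-like triple-negative breast cancer lines. The paper calls a changed response a hit when it shifts by more than 3x the replicate standard deviation. The tissue of the other fibroblasts is not given here.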
